This note sets out measurements from article PMC5766551.

Common to all, as to experiment: cross-linking; in vivo para-formaldehyde cross-linking (30 min, 37 °C) of BL21 cells expressing YidCHis alone (pBad24); YidC purified via its His-tag; western blot
(In general: In western blotting, separated proteins are transferred to a membrane and probed.)

Assay [1] concerns the target T1, YidC with N-terminal His-tag, wild type (E. coli) (UniProt P25714).
T1 sequence: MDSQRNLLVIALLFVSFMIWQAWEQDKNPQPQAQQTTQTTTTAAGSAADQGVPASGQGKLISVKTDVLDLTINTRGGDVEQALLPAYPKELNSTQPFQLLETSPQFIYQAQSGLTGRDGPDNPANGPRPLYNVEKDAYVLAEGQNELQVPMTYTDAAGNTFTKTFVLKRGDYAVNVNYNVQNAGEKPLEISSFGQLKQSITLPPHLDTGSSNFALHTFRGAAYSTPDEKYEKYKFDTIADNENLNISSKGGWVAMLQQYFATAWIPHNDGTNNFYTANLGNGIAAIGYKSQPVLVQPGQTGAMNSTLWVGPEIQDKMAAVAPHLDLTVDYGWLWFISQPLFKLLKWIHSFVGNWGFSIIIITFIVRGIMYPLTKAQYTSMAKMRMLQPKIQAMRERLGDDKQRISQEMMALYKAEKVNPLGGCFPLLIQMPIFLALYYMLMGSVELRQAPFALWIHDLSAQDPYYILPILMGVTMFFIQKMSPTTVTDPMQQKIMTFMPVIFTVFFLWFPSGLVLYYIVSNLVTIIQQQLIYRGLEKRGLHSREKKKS

The target in assay [2] is T2, YidC(Δ3 + Δ4) with N-terminal His-tag (E. coli) (UniProt P25714).
T2 sequence: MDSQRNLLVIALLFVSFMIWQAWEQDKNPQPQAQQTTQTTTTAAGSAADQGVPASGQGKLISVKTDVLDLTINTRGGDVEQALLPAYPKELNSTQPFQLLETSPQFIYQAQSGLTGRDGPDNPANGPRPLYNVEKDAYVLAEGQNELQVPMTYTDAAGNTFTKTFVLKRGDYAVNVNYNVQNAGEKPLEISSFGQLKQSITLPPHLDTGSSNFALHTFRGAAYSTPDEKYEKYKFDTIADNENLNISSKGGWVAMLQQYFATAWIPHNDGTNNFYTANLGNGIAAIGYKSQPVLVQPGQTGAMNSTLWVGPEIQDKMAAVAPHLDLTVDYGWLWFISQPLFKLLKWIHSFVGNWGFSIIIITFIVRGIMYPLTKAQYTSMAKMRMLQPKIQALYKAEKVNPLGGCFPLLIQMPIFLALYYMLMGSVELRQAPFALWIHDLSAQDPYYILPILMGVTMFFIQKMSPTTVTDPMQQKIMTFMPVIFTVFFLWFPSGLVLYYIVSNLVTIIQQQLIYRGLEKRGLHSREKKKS

Assay [3] deals with T3, YidC with N-terminal His-tag, wild type (E. coli), P25714.
T3 chain: T1 sequence
Particulars: remark: other sources report otherwise.

No constants are given. Whether binding was seen depends on the method and setting. In cells and extracts the contact can be indirect. Some binding calls cover weakened binding; strength is not graded here. Where a sequence is shown, tags or fusion partners need not be part of it.

B1: Ffh, the protein component of the bacterial SRP, endogenous (protein, UniProt P0AGD7 1-453)
chain: MFDNLTDRLSRTLRNISGRGRLTEDNVKDTLREVRMALLEADVALPVVREFINRVKEKAVGHEVNKSLTPGQEFVKIVRNELVAAMGEENQTLNLAAQPPAVVLMAGLQGAGKTTSVGKLGKFLREKHKKKVLVVSADVYRPAAIKQLETLAEQVGVDFFPSDVGQKPVDIVNAALKEAKLKFYDVLLVDTAGRLHVDEAMMDEIKQVHASINPVETLFVVDAMTGQDAANTAKAFNEALPLTGVVLTKVDGDARGGAALSIRHITGKPIKFLGVGEKTEALEPFHPDRIASRILGMGDVLSLIEDIESKVDRAQAEKLASKLKKGDGFDLNDFLEQLRQMKNMGGMASLMGKLPGMGQIPDNVKSQMDDKVLVRMEAIINSMTMKERAKPEIIKGSRKRRIAAGCGMQVQDVNRLLKQFDDMQRMMKKMKKGGMAKMMRSMKGMMPPGFPGR
On to B1, for which the binding entry in assay [1] and in assay [2] was “binds” throughout.

B2: FtsY, the SRP receptor, endogenous, P10121 1-497 (protein)
chain: MAKEKKRGFFSWLGFGQKEQTPEKETEVQNEQPVVEEIVQAQEPVKASEQAVEEQPQAHTEAEAETFAADVVEVTEQVAESEKAQPEAEVVAQPEPVVEETPEPVAIEREELPLPEDVNAEAVSPEEWQAEAETVEIVEAAEEEAAKEEITDEELETALAAEAAEEAVMVVPPAEEEQPVEEIAQEQEKPTKEGFFARLKRSLLKTKENLGSGFISLFRGKKIDDDLFEELEEQLLIADVGVETTRKIITNLTEGASRKQLRDAEALYGLLKEEMGEILAKVDEPLNVEGKAPFVILMVGVNGVGKTTTIGKLARQFEQQGKSVMLAAGDTFRAAAVEQLQVWGQRNNIPVIAQHTGADSASVIFDAIQAAKARNIDVLIADTAGRLQNKSHLMEELKKIVRVMKKLDVEAPHEVMLTIDASTGQNAVSQAKLFHEAVGLTGITLTKLDGTAKGGVIFSVADQFGIPIRYIGVGERIEDLRPFKADDFIEALFARED
For the molecule B2, the binding result in assay [3] is given as “binds”.

B3: FtsY, the SRP receptor, endogenous (protein, UniProt P10121 1-497)
chain: B2 chain
Regarding B3, in assay [2], the binding entry was “binds”.
